Results deposited as PubChem BioAssay AID743121 (NCATS, 2013)

- Aim: 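Knock-downs that sensitise breast cancer cells to camptothecin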 (primary screen)
- Cell system: MDA-MB-231 cells, a human breast cancer line
- Knock-down reagent: single siRNA against human genes, 20 nM siRNA (0.8 pmol per well)
- Duration: 120 h (drug added 48 h after transfection, read 72 h later)
- Conditions: camptothecin 20 nM (about EC30) for 72 h; vehicle 0.1% DMSO in parallel plates
- Read-out: 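Cell viability by ATP luminescence (CellTiter-Glo) as % of non-targeting siRNA wells, and the log2 ratio of viability without drug over viability with camptothecin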
- Scale: log2 vehicle/camptothecin viability: higher = stronger sensitisation to camptothecin; viability with camptothecin: higher = more viable cells
- Hit rule: 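Each gene scored by redundant siRNA activity (RSA) over its individual siRNA ratios; a gene is called active at p < 0.001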
The whole screen tested about 26,000 reagents; shown is a part drawn at random. Over the whole deposit, 167 (0.63%) were called active. 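Calls are per gene from RSA p-values that are not deposited; an individual active-marked siRNA can sensitise only weakly.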 A number with no mark means an inactive call. The numbers tell different reagents against one gene apart. Not all columns of the deposit are shown.

gene knocked down | reagent | log2 vehicle/camptothecin viability | viability with camptothecin (% of control)
TKFC (GeneID 26007) | 1 | -0.00684 | 85
TKFC (GeneID 26007) | 2 | 0.144 | 90.8
TKFC (GeneID 26007) | 3 | -0.199 | 81.4
TAS2R9 (GeneID 50835) | 1 | -0.226 | 86.7
TAS2R9 (GeneID 50835) | 2 | -0.258 | 78.7
TAS2R9 (GeneID 50835) | 3 | -0.174 | 70
TAS2R9 (GeneID 50835) | 4 | -0.142 | 68.4
CD9 (GeneID 928) | 1 | -0.337 | 92.2
CD9 (GeneID 928) | 2 | -0.231 | 104
CD9 (GeneID 928) | 3 | -0.418 | 72
OR51B2 (GeneID 79345) | 1 | -0.263 | 101
OR51B2 (GeneID 79345) | 2 | 0.189 | 84.5
OR51B2 (GeneID 79345) | 3 | -0.408 | 110
OR51B2 (GeneID 79345) | 4 | -0.0469 | 59.5

Individual results from the entries so far.
Entry of CD9 (GeneID 928) #3 under “log2 vehicle/camptothecin viability”: -0.418
TAS2R9 (GeneID 50835) #4, log2 vehicle/camptothecin viability: -0.142

The results go on.
gene knocked down | reagent | log2 vehicle/camptothecin viability | viability with camptothecin (% of control)
ABCG8 (GeneID 64241) | 1 | -0.0209 | 94.4
ABCG8 (GeneID 64241) | 2 | -0.523 | 90.4
ABCG8 (GeneID 64241) | 3 | 0.595 | 59.1
ABCG8 (GeneID 64241) | 4 | -0.0555 | 56
MTMR14 (GeneID 64419) | 1 | 0.0419 | 96.6
MTMR14 (GeneID 64419) | 2 | -0.0721 | 81.4
MTMR14 (GeneID 64419) | 3 | -0.0403 | 88
MTMR14 (GeneID 64419) | 4 | 1.1 | 26.6
PRSS36 (GeneID 146547) | 1 | -0.696 | 55.9
PRSS36 (GeneID 146547) | 2 | 0.26 | 49.2
PRSS36 (GeneID 146547) | 3 | -0.374 | 49.3
PRSS36 (GeneID 146547) | 4 | -0.429 | 14.5
KCNC3 (GeneID 3748) | 1 | -0.191 | 43.8
KCNC3 (GeneID 3748) | 2 | -0.74 | 36
KCNC3 (GeneID 3748) | 3 | -0.355 | 85.1
KCNC3 (GeneID 3748) | 4 | -0.289 | 110
